Laboratory results: the supplement of paper PMC10338343
± gives the standard deviation. The entries are a selection whose mix differs from that of the whole data set. Many entries were measured with a wide error. Some of the results follow.

Key:
[1] = system: MILI (PIWIL2) piRISC loaded with L1MC piRNA (26 nt); assay: pre-steady-state target cleavage rate (min^-1); higher = faster piRNA-guided slicing of the target; conditions: guide: L1MC piRNA 5'p-UAACUAAAUACUAUGCAAGCUGUAGG
How it was run: (§1)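 Cleave-'n-Seq: 1 nM active affinity-purified piRISC with one synthetic guide and 0.1 nM transcribed, DNA-blocked target RNA library were mixed, with or without 500 nM GTSF1 partner protein, in HEPES–potassium acetate buffer at 33 °C for 0–8 or 0–960 min. Uncleaved targets were sequenced and normalised to depth and to weakly complementary targets, three trials were pooled, and k3 was capped at 0.0001 min^-1. The pre-steady-state cleavage rate was fitted […].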

[2] = system: EfPiwi piRISC loaded with L1MC piRNA (26 nt); assay: pre-steady-state target cleavage rate (min^-1); guide: L1MC piRNA 5'p-UAACUAAAUACUAUGCAAGCUGUAGG; MIWI and MILI are mouse PIWI proteins and EfPiwi is from a freshwater sponge; tags in brackets are library labels; higher = faster piRNA-guided slicing of the target
How it was run: as §1

[3] = auxiliary factor: none (no GTSF1)
[4] = auxiliary factor: 500 nM Ephydatia muelleri Gtsf1
[5] = auxiliary factor: none (no Gtsf1)
[6] = auxiliary factor: 500 nM mouse GTSF1

Sequence | pre-steady-state target cleavage rate [1, 3] | pre-steady-state target cleavage rate [2, 4] | pre-steady-state target cleavage rate [2, 5] | pre-steady-state target cleavage rate [1, 6]
UCCUGCAUCAGCUUGCAUAGUAUUUACAAA | 0.00108 ± 0.0053 | 0.00323 ± 0.0016 | 0.000351 ± 0.022 | –
UCCUCCAACAGCUUGCAUAGUAUUUACUUA | 0.00287 ± 0.0029 | 0.00475 ± 0.0037 | 0.000443 ± 0.011 | –
UCCUGGAACAGCUUGCAUAGUUUUUACUUA | 0.00119 ± 0.0051 | 0.000494 ± 0.016 | 0.000512 ± 0.016 | –
UCCUGGAACAGCUUGGCAUAGUAUUUAGUUA | – | 0.0094 ± 0.0031 | 0.00052 ± 0.018 | 0.48 ± 0.097
UCCUGGAUGAGCUUGCUUAGUAUUAAGUUA | 0.00168 ± 0.0043 | 0.00314 ± 0.0031 | 0.00115 ± 0.0067 | –
UCCUGCUACAGCUGGCAUAGUAUUUAGUUA | – | 0.00937 ± 0.0024 | 0.000724 ± 0.009 | 0.293 ± 0.019
UCCUGGAACAGCUUGCUAUGUAUUUACAAA | 0.000645 ± 0.011 | 0.000318 ± 0.0093 | 0.000315 ± 0.016 | –
UCCUGGUACAGCUUGCAUAGUAUUAACUUA | 0.0031 ± 0.0032 | 0.0032 ± 0.0024 | 0.000258 ± 0.042 | –
UCCUCCUACAGCUUGCAUAGUAUUUAGGUA | 0.00116 ± 0.0068 | 0.00476 ± 0.0017 | 0.000306 ± 0.014 | –
UCCUGGAUCAGCUUGCAUUCUAUUUAGAAA | 0.000229 ± 0.024 | 0.00122 ± 0.0032 | 0.000264 ± 0.023 | –
UCCUGGAACAGCGUGCAUAGUAUUUAGUUA | – | 0.0168 ± 0.005 | 0.000654 ± 0.011 | 0.282 ± 0.017
UCCUGGAACAGCUUGCAUAGUUAUUAGUAA | 0.00124 ± 0.0059 | 0.00454 ± 0.0037 | 0.0003 ± 0.031 | –
UCCUGGAACAGCUUGCAUAGUAUUUAUGUUA | 0.00295 ± 0.0035 | 0.0035 ± 0.002 | 0.0019 ± 0.007 | –
UCCUCCUACACCUUGCAUAGUAUUUACAAA | 0.00179 ± 0.0035 | 0.00304 ± 0.0025 | 0.00039 ± 0.018 | –
UCCUGGAUGUGCUUGCAUAGUAUUUACGUUA | 0.00393 ± 0.0044 | 0.00702 ± 0.0042 | 0.000877 ± 0.01 | –
UCCUGCUACAGCUUGCAUAGGAUUUAGUUA | 0.00135 ± 0.0053 | 0.00356 ± 0.001 | 0.00068 ± 0.01 | –
UCCUGGAUCAGCUUGCAUAGUAUAAUGUAA | 0.00148 ± 0.004 | 0.00114 ± 0.0039 | 0.00011 ± 0.038 | –
UCCUGCUACAUGCUUGCAUAGUAUUUAGUUA | 0.00259 ± 0.0036 | 0.00438 ± 0.002 | 0.000411 ± 0.015 | –
UCCUGCUACAGAUUGCAUAGUAUUUAGUUA | – | 0.0138 ± 0.0034 | 0.000842 ± 0.009 | 0.299 ± 0.015
UCCUGGAUCAGCUUGCAUAGUAUUUUGAAA | 0.00267 ± 0.0032 | 0.00318 ± 0.0016 | 0.00081 ± 0.011 | –
UCCUGGUACACCUUGCAUACUAUUUAGUUA | 0.00346 ± 0.0041 | 0.000865 ± 0.0062 | 0.000273 ± 0.034 | –
UCCUGGAACAGCUUGCAUAGUUAAUAGUUA | 0.00197 ± 0.0036 | 0.00262 ± 0.0028 | 0.000729 ± 0.018 | –
UCCUGGAUGUGCUUGCAAACUAUUUAGUUA | 0.00286 ± 0.0031 | 0.00104 ± 0.0054 | 0.000516 ± 0.015 | –

Exported field by field: entries from further up.
UCCUGGUACAGCUUGCAUAGUAUUAACUUA
  pre-steady-state target cleavage rate [1, 3]: 0.0031 ± 0.0032
  pre-steady-state target cleavage rate [2, 4]: 0.0032 ± 0.0024
  pre-steady-state target cleavage rate [2, 5]: 0.000258 ± 0.042
UCCUGGAACAGCGUGCAUAGUAUUUAGUUA
  pre-steady-state target cleavage rate [2, 4]: 0.0168 ± 0.005
  pre-steady-state target cleavage rate [2, 5]: 0.000654 ± 0.011
  pre-steady-state target cleavage rate [1, 6]: 0.282 ± 0.017
